At least one structure is not confirmed: it was looked up by name or label, or the drawing left a doubt.
Target: T1, hS1P3 (Homo sapiens, UniProt Q99500)
T1 construct: expressed in transfected cells
Experiment: hS1P1:hS1P3 EC50 selectivity (S1P receptor Ca2+ flux protocol)
Type: cell-based
Conditions: better than 1:100 (in favour of hS1P1)

Chains of the proteins cited; added tags and fusions are not shown. Lines headed by an entry give the natural chain unless they say otherwise; changes in a name come on top.
UniProt Q99500: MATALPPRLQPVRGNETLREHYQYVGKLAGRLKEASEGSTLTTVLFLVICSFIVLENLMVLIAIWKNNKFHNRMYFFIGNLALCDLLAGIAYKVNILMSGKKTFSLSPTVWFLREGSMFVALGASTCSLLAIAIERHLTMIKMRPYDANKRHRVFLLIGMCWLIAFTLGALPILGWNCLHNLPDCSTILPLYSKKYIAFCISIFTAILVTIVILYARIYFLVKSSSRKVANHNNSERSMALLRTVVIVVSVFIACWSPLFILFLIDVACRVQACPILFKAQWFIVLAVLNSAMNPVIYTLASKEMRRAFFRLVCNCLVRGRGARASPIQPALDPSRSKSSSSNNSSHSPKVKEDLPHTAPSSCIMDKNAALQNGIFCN

Structure (SMILES)	hS1P1:hS1P3 EC50 selectivity ratios
Cc1ccc(Cc2ccc3oc(-c4ccc(CN5CC(C(=O)O)C5)cc4F)cc3c2)cc1	> 1:100
O=C(O)C1CN(Cc2ccc(-c3cc4cc(COc5ccccc5)ccc4o3)c(F)c2)C1	> 1:100
O=C(O)C1CN(Cc2ccc(-c3cc4cc([S+]([O-])c5ccccc5)ccc4o3)c(F)c2)C1 (centres unmarked)	> 1:100
O=C(O)C1CN(Cc2ccc(-c3cc4cc(Cc5ccccc5)ccc4s3)c(F)c2)C1	> 1:100
O=C(O)C1CN(Cc2ccc(-c3cc4cc(COC5CCC5)ccc4o3)c(F)c2)C1	> 1:100
O=C(O)C1CN(Cc2ccc(-c3cc4cc(Cc5ccccc5)cnc4o3)c(F)c2)C1	> 1:100
O=C(O)C1CN(Cc2ccc(-c3nc4cc(Sc5ccccc5)ccc4o3)c(F)c2)C1	> 1:100
O=C(O)C1CN(Cc2ccc(-c3cc4cc(Cc5ccccn5)ccc4o3)c(F)c2)C1	> 1:100
O=C(O)C1CN(Cc2ccc(-c3cc4cc(Cc5ncccn5)ccc4o3)c(F)c2)C1	> 1:100
O=C(O)C1CN(Cc2ccc(-c3cc4cc(Cc5nccs5)ccc4o3)c(F)c2)C1	> 1:100
O=C(O)C1CN(Cc2ccc(-c3nc4cc(Cc5ccccc5)ccc4s3)c(F)c2)C1	> 1:100
O=C(O)C1CN(Cc2ccc(-c3cc4cc(Cc5ccccc5)ccc4o3)c(F)c2)C1	> 1:100
O=C(O)C1CN(Cc2ccc(-c3cc4cc(C(F)(F)c5ccccc5)ccc4o3)c(F)c2)C1	> 1:100
COc1cc(CN2CC(C(=O)O)C2)ccc1-c1cc2cc(Cc3ccccc3)ccc2o1	> 1:100
O=C(O)C1CN(Cc2ccc(-c3cc4ccc(Cc5ccccc5)cc4o3)c(F)c2)C1	> 1:100
O=C(O)C1CN(Cc2ccc(-c3cc4cc(C(=NO)c5ccccc5)ccc4o3)c(F)c2)C1 (mixture of isomers)	> 1:100
O=C(O)C1CN(Cc2ccc(-c3cc4cc(Oc5ccccc5)ccc4o3)c(F)c2)C1 [1-((3-Fluoro-4-(5-phenoxybenzofuran-2-yl)benzyl)azetidine-3-carboxylic acid]	> 1:100
O=C(O)C1CN(Cc2ccc(-c3cc4cc(Sc5ccccc5)ccc4o3)c(F)c2)C1 [1-((3-Fluoro-4-(5-phenylthio)benzofuran-2-yl)benzyl)azetidine-3-carboxylic acid]	> 1:100
O=C(O)C1CN(Cc2ccc(-c3cc4cc(Oc5ccccc5)ccc4o3)cc2)C1 [1-((4-(5-phenoxybenzofuran-2-yl)benzyl)azetidine-3-carboxylic acid]	> 1:100
CCCCOc1ccc2oc(-c3ccc(CN4CC(C(=O)O)C4)cn3)cc2c1 [1-(((6-(5-Butoxylbenzofuran-2-yl)pyridin-3-yl)methyl)azetidine-3-carboxylic acid]	> 1:100

— patent EP2364976B1, “S1P receptor modulating compounds and use thereof” (EPIX Pharmaceuticals, Inc., priority 2007, dated 2007)
